In the experiment the target is Flag-tagged DnaJ of Escherichia coli (E. coli) (UniProt P08622). The experiment is described as follows: co-IP; Flag-tagged Rki or DnaJ from pBAD33 co-expressed with σ^32 from p29SEN-RpoH at 30°C (0.5% L-arabinose, 50 µM IPTG) in E. coli AR3291 (ΔftsH) or in the DnaK depletion strain FA1195 (Ptet dnaKJ, no anhydrotetracycline); anti-Flag M2-agarose, eluted with FLAG peptide; blot with anti-σ^32.

Protein sequences, listed by entry. Tags and fused reporters are not part of them.
UniProt P08622: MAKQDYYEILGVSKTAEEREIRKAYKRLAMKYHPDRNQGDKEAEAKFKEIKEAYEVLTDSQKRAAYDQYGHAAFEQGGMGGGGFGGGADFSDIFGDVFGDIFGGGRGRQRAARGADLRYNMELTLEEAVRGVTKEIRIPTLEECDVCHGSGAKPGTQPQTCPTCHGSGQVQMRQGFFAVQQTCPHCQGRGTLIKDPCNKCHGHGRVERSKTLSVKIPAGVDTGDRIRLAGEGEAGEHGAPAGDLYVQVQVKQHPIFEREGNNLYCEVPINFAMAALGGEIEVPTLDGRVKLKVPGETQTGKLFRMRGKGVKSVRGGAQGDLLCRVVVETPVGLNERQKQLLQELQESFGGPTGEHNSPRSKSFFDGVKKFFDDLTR

These are yes or no findings as the source states them, for the method shown. Binding seen in cells or lysates may run through a third protein. Some entries that bind do so weakly or less than the wild type.

B1: heat-shock factor σ^32 (RpoH) of Escherichia coli, plasmid-encoded (protein, UniProt P0AGB3 1-284)
chain: MTDKMQSLALAPVGNLDSYIRAANAWPMLSADEERALAEKLHYHGDLEAAKTLILSHLRFVVHIARNYAGYGLPQADLIQEGNIGLMKAVRRFNPEVGVRLVSFAVHWIKAEIHEYVLRNWRIVKVATTKAQRKLFFNLRKTKQRLGWFNQDEVEMVARELGVTSKDVREMESRMAAQDMTFDLSSDDDSDSQPMAPVLYLQDKSSNFADGIEDDNWEEQAANRLTDAMQGLDERSQDIIRARWLDEDNKSTLQELADRYGVSAERVRQLEKNAMKKLRAAIEA
For B1, the binding result is on record as “binds”.

Source of the values: paper PMC3486835.
